In patent US10695360B2, “Adiponectin secretion enhancer” (WASHINGTON UNIVERSITY, priority 2017, dated 2020):

System: ANKO mice (adipose tissue-specific NAMPT knockout mice)
Assay: NAD+ precursor rescue experiments in ANKO mice (Example 5)
Assay type: in vivo, mouse
Settings: NMN-treated ANKO mice, 500 mg/kg body weight/day, 4 to 6 weeks; mean ±SE
Source text: To determine whether metabolic derangements depend on the defects in NAD+ biosynthesis in ANKO mice, we treated mice with NMN, a key NAD+ intermediate and the product of the NAMPT reaction (FIG. 6A). In the diagram, “NA” represents nicotinic acid, “NaMN” represents nicotinic acid mononucleotide, “NIC” represents nicotinamide, “NR” represents nicotinamide riboside, “Tip” represents tryptophan, and “NAPRT” represents nicotinate phosphoribosyl transferase. NMN is a product of an enzyme reaction mediated by NAMPT and is converted directly to NAD+. Nicotinic acid is a precursor in the NAPRT-dependent NAD+ biosynthesis pathway.
ANKO mice were generated by using adiponectin-Cre transgenic mice and floxed-Nampt mice as previously described (Noon et al., 2015). Mice were maintained on a standard chow diet (LabDiet 5053; LabDiet) ad libitum. For RSG rescue experiments, ANKO mice received a chow containing RSG (#71740; Cayman Chemical) at the approximate dose of 20 mg/kg body Weight/day soon after weaning for up to 7 weeks. For NAD+ precursor rescue experiments, we administered NMN (#44500900; Oriental Yeast) and NA (#72309; Sigma-Aldrich) in drinking water, at the approximate dose of 500 mg/kg of body weight, to ANKO mice soon after weaning for up to 2 months.
More specifically, drinking water containing NMN (500 mg/kg body weight/day) was administered to the female ANKO mice and metabolic parameters were investigated after administering NMN for 4 to 6 weeks. […]
FIG. 6B indicates the results of measuring […] levels in adipose tissue for female ANKO mice administered NMN for 4 to 6 weeks (500 mg/kg body weight day) and non-dosed female ANKO mice of the same age (per group, n=5 to 7). NAD+ levels were measured with an HPLC (high-performance liquid chromatography) system using a Supelco LC-18-T column (#58970-U, Sigma-Aldrich Corp.) (Yoon, et al., Cell Metabolism, 2015, Vol. 21, p. 706-717). […]

NC(=O)c1ccc[n+]([C@@H]2O[C@H](COP(=O)([O-])O)C(O)[C@H]2O)c1 (stereo partly drawn) [β-NMN, Nicotinamide mononucleotide]
body temperature: 36.7±0.3 _C
body weight: 18.0 ± 0.5 g
daily food intake: 0.21±0.01 g/g of body weight
